Assay results from publication PMC7181604, “Arabidopsis FHY3 and FAR1 integrate light and strigolactone signaling to regulate branching”.
Results are given in words; binding and its absence hold for the method and conditions named. In cells and extracts the contact can be indirect. Some entries that bind do so weakly or less than the wild type. Sequences can lack the tags named with a protein.

Assays:
Experiment in all cases: co-IP; transient expression in N. benthamiana leaves; anti-HA magnetic agarose beads, 2 h at 4 °C; co-IP buffer 50 mM Tris-Cl pH 7.5, 100 mM NaCl, 0.1% Tween-20; detection with anti-MYC
[1] = biological target: T1, FHY3-HA (Arabidopsis thaliana) (UniProt Q9LIE5)
T1 sequence: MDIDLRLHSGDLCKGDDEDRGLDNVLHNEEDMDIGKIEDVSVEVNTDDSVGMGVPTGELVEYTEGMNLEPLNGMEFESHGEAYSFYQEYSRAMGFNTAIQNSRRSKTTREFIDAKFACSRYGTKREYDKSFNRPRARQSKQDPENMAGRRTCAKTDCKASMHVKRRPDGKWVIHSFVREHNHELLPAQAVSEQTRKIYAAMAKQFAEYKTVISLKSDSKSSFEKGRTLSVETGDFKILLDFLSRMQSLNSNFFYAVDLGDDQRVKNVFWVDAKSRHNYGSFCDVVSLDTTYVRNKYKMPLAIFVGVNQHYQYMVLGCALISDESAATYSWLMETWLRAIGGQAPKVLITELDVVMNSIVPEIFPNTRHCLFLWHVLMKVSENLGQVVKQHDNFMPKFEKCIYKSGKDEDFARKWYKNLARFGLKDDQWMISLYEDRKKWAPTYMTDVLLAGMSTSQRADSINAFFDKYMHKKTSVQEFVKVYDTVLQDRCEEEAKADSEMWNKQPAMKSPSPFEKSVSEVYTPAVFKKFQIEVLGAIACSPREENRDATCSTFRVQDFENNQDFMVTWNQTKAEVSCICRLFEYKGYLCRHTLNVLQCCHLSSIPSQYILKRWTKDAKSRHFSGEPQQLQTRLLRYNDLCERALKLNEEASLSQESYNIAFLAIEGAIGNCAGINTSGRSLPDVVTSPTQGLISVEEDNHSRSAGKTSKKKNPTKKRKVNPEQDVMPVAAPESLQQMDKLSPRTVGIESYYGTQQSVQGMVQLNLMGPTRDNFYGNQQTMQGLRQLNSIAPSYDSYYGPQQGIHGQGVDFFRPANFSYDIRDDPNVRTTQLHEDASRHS

[2] = biological target: T2, FAR1 (Co-IP construct) (Arabidopsis thaliana) (UniProt Q9SWG3)
T2 sequence: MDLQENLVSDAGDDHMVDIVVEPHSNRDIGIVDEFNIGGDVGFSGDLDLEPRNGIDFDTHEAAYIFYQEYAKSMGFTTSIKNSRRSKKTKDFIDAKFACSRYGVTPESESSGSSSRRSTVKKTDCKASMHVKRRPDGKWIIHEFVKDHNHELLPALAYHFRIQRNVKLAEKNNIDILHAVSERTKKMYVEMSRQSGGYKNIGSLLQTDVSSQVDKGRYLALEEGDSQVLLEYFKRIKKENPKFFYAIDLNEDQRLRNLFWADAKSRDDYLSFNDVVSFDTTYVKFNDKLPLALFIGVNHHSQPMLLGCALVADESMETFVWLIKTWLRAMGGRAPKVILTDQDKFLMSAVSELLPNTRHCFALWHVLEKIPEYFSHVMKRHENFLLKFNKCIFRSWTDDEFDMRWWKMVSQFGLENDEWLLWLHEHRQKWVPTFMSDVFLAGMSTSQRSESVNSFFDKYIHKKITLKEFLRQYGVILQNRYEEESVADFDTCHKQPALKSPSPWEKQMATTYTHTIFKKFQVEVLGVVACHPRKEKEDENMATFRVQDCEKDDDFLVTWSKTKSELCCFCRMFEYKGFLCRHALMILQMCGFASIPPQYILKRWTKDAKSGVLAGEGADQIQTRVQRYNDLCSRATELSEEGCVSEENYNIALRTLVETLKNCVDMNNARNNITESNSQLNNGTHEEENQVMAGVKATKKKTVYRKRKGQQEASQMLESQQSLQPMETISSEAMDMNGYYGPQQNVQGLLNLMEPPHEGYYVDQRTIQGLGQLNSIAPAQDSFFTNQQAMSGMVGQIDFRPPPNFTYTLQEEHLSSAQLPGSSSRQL

[3] = biological target: T3, SMXL6-HA (Arabidopsis thaliana) (UniProt Q9LML2)
T3 sequence: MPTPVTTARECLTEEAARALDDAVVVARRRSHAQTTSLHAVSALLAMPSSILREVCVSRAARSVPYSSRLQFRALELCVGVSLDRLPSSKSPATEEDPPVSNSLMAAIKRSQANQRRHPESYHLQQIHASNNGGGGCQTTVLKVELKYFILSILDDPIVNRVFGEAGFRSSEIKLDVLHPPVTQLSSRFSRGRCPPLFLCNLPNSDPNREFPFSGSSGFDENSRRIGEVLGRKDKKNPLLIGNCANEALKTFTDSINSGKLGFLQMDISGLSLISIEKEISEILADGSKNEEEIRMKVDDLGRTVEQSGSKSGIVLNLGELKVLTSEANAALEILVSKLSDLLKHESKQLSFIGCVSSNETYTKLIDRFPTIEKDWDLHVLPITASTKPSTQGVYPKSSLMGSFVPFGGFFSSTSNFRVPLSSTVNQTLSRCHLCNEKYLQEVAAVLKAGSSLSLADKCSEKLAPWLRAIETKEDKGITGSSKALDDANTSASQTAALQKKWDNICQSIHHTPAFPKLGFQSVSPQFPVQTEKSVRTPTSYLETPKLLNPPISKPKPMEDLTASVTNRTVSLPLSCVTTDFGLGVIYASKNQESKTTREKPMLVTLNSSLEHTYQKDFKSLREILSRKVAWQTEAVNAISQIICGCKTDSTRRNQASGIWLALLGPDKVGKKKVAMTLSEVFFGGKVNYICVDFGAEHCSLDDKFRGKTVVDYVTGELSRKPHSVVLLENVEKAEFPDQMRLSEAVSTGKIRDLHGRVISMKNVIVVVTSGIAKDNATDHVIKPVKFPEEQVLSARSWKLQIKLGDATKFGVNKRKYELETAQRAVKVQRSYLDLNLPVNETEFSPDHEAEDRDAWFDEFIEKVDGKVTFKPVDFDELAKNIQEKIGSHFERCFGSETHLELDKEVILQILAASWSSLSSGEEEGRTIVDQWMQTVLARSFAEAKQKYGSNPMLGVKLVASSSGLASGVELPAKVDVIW

Measured: binding

B1: SPL9-MYC (protein, UniProt Q700W2 1-375)
chain: MEMGSNSGPGHGPGQAESGGSSTESSSFSGGLMFGQKIYFEDGGGGSGSSSSGGRSNRRVRGGGSGQSGQIPRCQVEGCGMDLTNAKGYYSRHRVCGVHSKTPKVTVAGIEQRFCQQCSRFHQLPEFDLEKRSCRRRLAGHNERRRKPQPASLSVLASRYGRIAPSLYENGDAGMNGSFLGNQEIGWPSSRTLDTRVMRRPVSSPSWQINPMNVFSQGSVGGGGTSFSSPEIMDTKLESYKGIGDSNCALSLLSNPHQPHDNNNNNNNNNNNNNNTWRASSGFGPMTVTMAQPPPAPSQHQYLNPPWVFKDNDNDMSPVLNLGRYTEPDNCQISSGTAMGEFELSDHHHQSRRQYMEDENTRAYDSSSHHTNWSL
binds: all assays above

B2: SPL15-MYC (protein, UniProt Q9M2Q6 1-354)
chain: MELLMCSGQAESGGSSSTESSSLSGGLRFGQKIYFEDGSGSRSKNRVNTVRKSSTTARCQVEGCRMDLSNVKAYYSRHKVCCIHSKSSKVIVSGLHQRFCQQCSRFHQLSEFDLEKRSCRRRLACHNERRRKPQPTTALFTSHYSRIAPSLYGNPNAAMIKSVLGDPTAWSTARSVMQRPGPWQINPVRETHPHMNVLSHGSSSFTTCPEMINNNSTDSSCALSLLSNSYPIHQQQLQTPTNTWRPSSGFDSMISFSDKVTMAQPPPISTHQPPISTHQQYLSQTWEVIAGEKSNSHYMSPVSQISEPADFQISNGTTMGGFELYLHQQVLKQYMEPENTRAYDSSPQHFNWSL
binds: all assays above
